Experimental data reported in the supplement of paper PMC10382679.
Single values of this set are uncertain.

B1: Rpb7; numbered along this chain (parent)
chain: MFFIKDLSLNITLHPSFFGPRMKQYLKTKLLEEVEGSCTGKFGYILCVLDYDNIDIQRGRILPTDGSAEFNVKYRAVVFKPFKGEVVDGTVVSCSQHGFEVQVGPMKVFVTKHLMPQDLTFNAGSNPPSYQSSEDVITIKSRIRVKIEGCISQVSSIHAIGSIKEDYLGAI

Key:
[1] = variants of: B1; assay: log2 fold change of mutant abundance, UV-irradiated vs unirradiated; higher = more UV resistant (enriched after UV); details: with Saccharomyces cerevisiae rad7Δ rad26Δ; UV dose (J/m2): 10; genetic background: rad7Δ rad26Δ rpb7Δ + plasmid RPB7 library; outgrowth: 10 cell divisions
[2] = variants of: B1; assay: NOISeq theta enrichment statistic, UV-irradiated vs unirradiated (dimensionless); higher = more UV resistant (enriched after UV); details: with Saccharomyces cerevisiae rad7Δ rad26Δ; UV dose (J/m2): 10; genetic background: rad7Δ rad26Δ rpb7Δ + plasmid RPB7 library; outgrowth: 10 cell divisions

| Variant | log2 fold change of mutant abundance [1] | NOISeq theta enrichment statistic [2] |
| --- | --- | --- |
| Y74K | -0.172 | -0.118 |
| Y74L | 0.149 | 0.167 |
| Y74N | -0.175 | -0.176 |
| Y74Q | 1.52 | 0.64 |
| Y74S | -0.0187 | -0.0418 |
| Y74T | -0.00188 | -0.00152 |
| Y74V | -0.0591 | -0.0614 |
| R75C | -0.0697 | -0.0619 |
| R75E | 0.105 | 0.133 |
| R75G | -0.0967 | -0.167 |
| R75I | 0.0868 | 0.392 |
| R75K | -0.049 | -0.15 |
| R75L | -0.079 | -0.066 |
| R75M | -0.0245 | -0.0249 |
| R75N | -0.264 | -0.249 |
| R75Q | -0.436 | -0.309 |
| R75S | -0.0886 | -0.531 |
| R75T | 0.0672 | 0.11 |
| R75V | 0.0546 | 0.0505 |
| R75W | -0.289 | -0.216 |
| A76C | -0.312 | -0.227 |
| A76D | 0.0251 | 0.0546 |
| A76E | 0.0524 | 0.049 |

| Variant | log2 fold change of mutant abundance [1] | NOISeq theta enrichment statistic [2] |
| --- | --- | --- |
| A76F | -0.365 | -0.368 |
| A76G | 0.14 | 0.187 |
| A76H | 0.132 | 0.087 |
| A76L | 0.163 | 0.2 |
| A76P | -0.133 | -0.169 |
| A76R | -0.129 | -0.11 |
| A76S | 0.0213 | 0.0562 |
| A76T | 0.108 | 0.176 |
| A76V | -0.0211 | -0.0768 |
| A76Y | 0.449 | 0.266 |
| V77A | -0.126 | -0.233 |
| V77C | 0.266 | 0.15 |
| V77D | 0.449 | 0.352 |
| V77E | 0.0812 | 0.123 |
| V77F | 0.0711 | 0.0798 |
| V77G | -0.0709 | -0.208 |
| V77I | 0.122 | 0.346 |
| V77L | 0.0115 | 0.0654 |
| V77M | 0.655 | 0.404 |
| V77R | -0.0632 | -0.0477 |
| V77S | -0.265 | -0.205 |
| V77Y | -0.192 | -0.145 |
| V78A | -0.0968 | -0.199 |

7 records picked at random from those above, as already listed:

| Variant | log2 fold change of mutant abundance [1] | NOISeq theta enrichment statistic [2] |
| --- | --- | --- |
| V77S | -0.265 | -0.205 |
| A76L | 0.163 | 0.2 |
| V77G | -0.0709 | -0.208 |
| V77C | 0.266 | 0.15 |
| A76R | -0.129 | -0.11 |
| A76T | 0.108 | 0.176 |
| A76H | 0.132 | 0.087 |

Continuation.

| Variant | log2 fold change of mutant abundance [1] | NOISeq theta enrichment statistic [2] |
| --- | --- | --- |
| V78C | -0.0957 | -0.102 |
| V78D | -0.0711 | -0.106 |
| V78F | -0.00206 | -0.00659 |
| V78G | -0.0432 | -0.186 |
| V78I | -0.013 | -0.0315 |
| V78L | -0.0617 | -0.0778 |
| V78S | 0.177 | 0.153 |
| V78Y | 0.24 | 0.216 |
| F79C | -0.145 | -0.336 |
| F79D | 0.192 | 0.157 |
| F79I | 0.103 | 0.266 |
| F79L | 0.0714 | 0.347 |
| F79N | -0.32 | -0.174 |
| F79S | 0.0553 | 0.11 |
| F79V | -0.0646 | -0.169 |
| F79Y | 0.0138 | 0.0854 |
| K80A | 0.239 | 0.143 |
| K80D | -0.266 | -0.242 |
| K80E | -0.199 | -0.742 |
| K80G | -0.425 | -0.231 |
| K80H | -0.178 | -0.172 |
| K80I | -0.0703 | -0.334 |
| K80L | 0.0456 | 0.0448 |

| Variant | log2 fold change of mutant abundance [1] | NOISeq theta enrichment statistic [2] |
| --- | --- | --- |
| K80M | -0.528 | -0.43 |
| K80N | -0.0508 | -0.286 |
| K80Q | -0.0372 | -0.0913 |
| K80R | -0.101 | -0.597 |
| K80S | -0.325 | -0.301 |
| K80T | -0.121 | -0.34 |
| K80V | -0.0944 | -0.0689 |
| K80Y | -0.243 | -0.233 |
| P81A | 0.0317 | 0.0428 |
| P81E | -0.417 | -0.253 |
| P81H | 0.0467 | 0.0843 |
| P81I | 0.141 | 0.127 |
| P81K | -0.0369 | -0.0332 |
| P81L | 0.0837 | 0.452 |
| P81N | -0.185 | -0.132 |
| P81Q | 0.0106 | 0.064 |
| P81R | 0.00401 | 0.00576 |
| P81S | -0.0649 | -0.201 |
| P81T | -0.0279 | -0.176 |
| P81V | -0.105 | -0.0653 |
| P81Y | -0.0987 | -0.0734 |
| F82A | 0.885 | 0.477 |
| F82C | 0.0707 | 0.18 |

| Variant | log2 fold change of mutant abundance [1] | NOISeq theta enrichment statistic [2] |
| --- | --- | --- |
| F82D | 0.34 | 0.193 |
| F82G | -0.118 | -0.0931 |
| F82H | 0.579 | 0.406 |
| F82I | 0.0473 | 0.229 |
| F82L | 0.0559 | 0.558 |
| F82M | -0.106 | -0.0837 |
| F82N | 0.000464 | 0.000361 |
| F82P | -1.13 | -0.738 |
| F82R | -0.635 | -0.425 |
| F82S | -0.138 | -0.474 |
| F82T | -0.324 | -0.221 |
| F82V | 0.0401 | 0.114 |
| F82W | 0.159 | 0.126 |
| F82Y | 0.0676 | 0.327 |
| K83D | 0.234 | 0.203 |
| K83E | 0.628 | 1.36 |
| K83G | 0.206 | 0.203 |
| K83H | 0.245 | 0.215 |
| K83I | 0.31 | 1.47 |
| K83L | 0.628 | 0.609 |
| K83M | 0.153 | 0.141 |
| K83N | 0.146 | 0.785 |
| K83P | -0.632 | -0.448 |
